Laboratory results reported in publication PMC12848575.
No constants are given. Whether binding was seen depends on the method and setting. Binding seen in cells or lysates may run through a third protein. Some binding calls cover weakened binding; strength is not graded here.

By UniProt entry, the sequences of proteins in these tests, tags left out.
UniProt Q9Z0Z7: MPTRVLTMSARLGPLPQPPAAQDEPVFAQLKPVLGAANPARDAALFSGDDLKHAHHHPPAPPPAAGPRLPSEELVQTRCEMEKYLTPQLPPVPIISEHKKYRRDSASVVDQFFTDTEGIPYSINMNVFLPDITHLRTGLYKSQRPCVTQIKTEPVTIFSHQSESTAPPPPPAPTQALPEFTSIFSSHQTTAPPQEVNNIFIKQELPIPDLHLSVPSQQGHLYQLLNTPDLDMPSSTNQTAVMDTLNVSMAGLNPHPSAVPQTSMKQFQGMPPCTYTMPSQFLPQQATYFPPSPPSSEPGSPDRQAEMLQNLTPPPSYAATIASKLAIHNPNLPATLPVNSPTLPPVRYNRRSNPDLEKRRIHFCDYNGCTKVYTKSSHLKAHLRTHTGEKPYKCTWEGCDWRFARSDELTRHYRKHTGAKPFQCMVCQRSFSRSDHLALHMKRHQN
UniProt P45448: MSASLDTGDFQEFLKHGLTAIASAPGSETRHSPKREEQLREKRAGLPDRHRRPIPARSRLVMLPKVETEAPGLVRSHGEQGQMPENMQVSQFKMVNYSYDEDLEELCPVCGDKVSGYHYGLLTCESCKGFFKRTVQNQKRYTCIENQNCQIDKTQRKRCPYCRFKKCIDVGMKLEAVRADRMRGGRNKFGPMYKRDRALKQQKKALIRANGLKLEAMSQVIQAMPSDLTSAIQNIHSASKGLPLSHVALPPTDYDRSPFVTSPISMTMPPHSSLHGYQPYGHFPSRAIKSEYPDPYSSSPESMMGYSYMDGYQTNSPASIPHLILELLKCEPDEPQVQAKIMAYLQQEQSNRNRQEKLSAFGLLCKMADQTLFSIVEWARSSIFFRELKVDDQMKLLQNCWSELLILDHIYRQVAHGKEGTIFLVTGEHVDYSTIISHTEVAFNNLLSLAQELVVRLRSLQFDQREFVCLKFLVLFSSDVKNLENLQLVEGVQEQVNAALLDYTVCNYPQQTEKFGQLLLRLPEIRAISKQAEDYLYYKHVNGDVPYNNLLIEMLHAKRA

Molecular target: KLF5 (mouse (endogenous in 8-cell embryos)) (UniProt Q9Z0Z7)
Assay: proximity ligation; Duolink PLA on fixed (4% formaldehyde), permeabilised mouse 8-cell embryos; primary antibodies against NR5A2 and KLF5, rabbit PLUS and mouse MINUS probes; PLA spots within nuclei counted, density compared with no-primary and single-antibody controls

NR5A2 (from UniProt P45448 1-560)
binding: binds
